Results reported in patent publication US20080267980A1.
These are yes or no findings as the source states them, for the method shown. Some results given as binding are weak or reduced against the parent protein; the word gives no strength.

Sequences of proteins named here, by UniProt entry; tags and fusion partners are left off. Residues count along the entry.
UniProt P01024, residues 955-1303: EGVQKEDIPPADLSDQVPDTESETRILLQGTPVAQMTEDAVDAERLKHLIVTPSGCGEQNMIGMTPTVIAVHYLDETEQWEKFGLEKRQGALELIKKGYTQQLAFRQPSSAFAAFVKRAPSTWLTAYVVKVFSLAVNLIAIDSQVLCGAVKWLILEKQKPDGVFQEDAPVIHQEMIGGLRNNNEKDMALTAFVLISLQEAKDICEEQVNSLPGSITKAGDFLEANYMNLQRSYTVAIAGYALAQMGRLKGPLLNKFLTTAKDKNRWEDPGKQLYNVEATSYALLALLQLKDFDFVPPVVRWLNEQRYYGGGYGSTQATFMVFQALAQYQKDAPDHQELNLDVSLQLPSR

Assays:
[1] = molecular target: Human C3dg-biotin (human) (UniProt P01024); assay: ELISA, wells coated with purified C3dg, anti-complement inhibitor antibodies
[2] = molecular target: Human C3dg-biotin (human) (UniProt P01024); assay: SPR, biotinylated C3dg on streptavidin BIAcore chip
[3] = molecular target: Human C3dg-biotin (human) (UniProt P01024); assay: SPR, C3dg-biotin on streptavidin chip, 1:1 Langmuir fit
[4] = molecular target: Human C3dg-biotin (human) (UniProt P01024); assay: SPR (referred to)
[5] = molecular target: Human C3dg-biotin (human) (UniProt P01024); assay: SPR (BIAcore)

Measured: binding

B1: CR2-DAF (protein)
chain: ISCGSPPPILNGRISYYSTPIAVGTVIRYSCSGTFRLIGEKSLLCITKDKVDGTWDKPAPKCEYFNKYSSCPEPIVPGGYKIRGSTPYRHGDSVTFACKTNFSMNGNKSVWCQANNMWGPTRLPTCVSVFPLECPALPMIHNGHHTSENVGSIAPGLSVTYSCESGYLLVGEKIINCLSSGKWSAVPPTCEEARCKSLGRFPNGKVKEPPILRVGVTANFFCDEGYRLQGPPSSRCVIAGQGVAWTKMPVCGGGSGGGGSDCGLPPDVPNAQPALEGRTSFPEDTVITYKCEESFVKIPGEKDSVICLKGSQWSDIEEFCNRSCEVPTRLNSASLKQPYITQNYFPVGTVVEYECRPGYRREPSLSPKLTCLQNLKWSTAVEFCKKKSCPNPGEIRNGQIDVPGGILFGATISFSCNTGYKLFGSTSSFCLISGSSVQWSDPLPECREIYCPAPPQIDNGIIQGERDHYGYRQSVTYACNKGFTMIGEHSIYCTV
binds: all assays above

B2: CD59-CR2 (protein)
chain: LQCYNCPNPTADCKTAVNCSSDFDACLITKAGLQVYNKCWKFEHCNFNDVTTRLRENELTYYCCKKDLCNFNEQLENSSGGGGSGGGGSGGGGSISCGSPPPILNGRISYYSTPIAVGTVIRYSCSGTFRLIGEKSLLCITKDKVDGTWDKPAPKCEYFNKYSSCPEPIVPGGYKIRGSTPYRHGDSVTFACKTNFSMNGNKSVWCQANNMWGPTRLPTCVSVFPLECPALPMIHNGHHTSENVGSIAPGLSVTYSCESGYLLVGEKIINCLSSGKWSAVPPTCEEARCKSLGRFPNGKVKEPPILRVGVTANFFCDEGYRLQGPPSSRC
not listed: [4]
binds: all other assays above
